Experimental data: PubChem BioAssay AID1259254 (NCATS, 2017)
The whole screen tested about 59,000 reagents; below is a part drawn at random. About 1,550 of them (2.6%) count as active. 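G2 share is only a proxy for re-replication; each gene was hit by three separate siRNAs, and active genes were retested.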 The numbers tell different reagents against one gene apart. Not all columns of the deposit are shown. The record does not give: the amount of reagent.

- Test: 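Genome-wide screen for genes that prevent DNA re-replication in cancer cells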 (primary screen)
- Cells: human HCT116 colorectal cancer cells
- Knock-down reagent: single siRNA against human genes
- Timing: 3 days
- Measurement: 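Nuclei stained with Hoechst and imaged; cell-cycle phase assigned by DNA content; G2 share scaled per plate, non-targeting siRNA 0%, GMNN siRNA 100%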
- Scale: G2 robust z-score: higher = more G2 cells, more excess DNA replication
- Hit rule: 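An siRNA counts as active if its G2 robust z-score lies at least 5 MADs above the screen median; here such calls match roughly 38% of GMNN control or more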

target	reagent no.	G2 robust z-score	activity call
DNAH11 (dynein axonemal heavy chain 11)	1	-0.821	inactive
DNAH11 (dynein axonemal heavy chain 11)	2	1.35	inactive
DNAH11 (dynein axonemal heavy chain 11)	3	-0.0933	inactive
OR6A2 (olfactory receptor family 6 subfamily A member 2)	1	2.52	inactive
OR6A2 (olfactory receptor family 6 subfamily A member 2)	2	-0.352	inactive
OR6A2 (olfactory receptor family 6 subfamily A member 2)	3	-0.728	inactive
NXPE2 (neurexophilin and PC-esterase domain family member 2)	1	-0.499	inactive
NXPE2 (neurexophilin and PC-esterase domain family member 2)	2	0.649	inactive
NXPE2 (neurexophilin and PC-esterase domain family member 2)	3	-0.0229	inactive
LUC7L2 (LUC7 like 2, pre-mRNA splicing factor)	1	-1.06	inactive
LUC7L2 (LUC7 like 2, pre-mRNA splicing factor)	2	0.502	inactive
LUC7L2 (LUC7 like 2, pre-mRNA splicing factor)	3	-0.26	inactive
GIPC2 (GIPC PDZ domain containing family member 2)	1	0.671	inactive
GIPC2 (GIPC PDZ domain containing family member 2)	2	0.0799	inactive
GIPC2 (GIPC PDZ domain containing family member 2)	3	-1.07	inactive
DCAF4L2 (DDB1 and CUL4 associated factor 4 like 2)	1	-0.604	inactive
DCAF4L2 (DDB1 and CUL4 associated factor 4 like 2)	2	1.94	inactive
DCAF4L2 (DDB1 and CUL4 associated factor 4 like 2)	3	-1.03	inactive
CAND1 (cullin associated and neddylation dissociated 1)	1	-0.514	inactive
CAND1 (cullin associated and neddylation dissociated 1)	2	1.89	inactive
CAND1 (cullin associated and neddylation dissociated 1)	3	-0.534	inactive
BEST4 (bestrophin 4)	1	1.44	inactive
BEST4 (bestrophin 4)	2	0.276	inactive
BEST4 (bestrophin 4)	3	0.925	inactive
SOCS7 (suppressor of cytokine signaling 7)	1	0.0202	inactive
SOCS7 (suppressor of cytokine signaling 7)	2	-0.567	inactive
SOCS7 (suppressor of cytokine signaling 7)	3	1.37	inactive
PCDH7 (protocadherin 7)	1	-0.312	inactive
PCDH7 (protocadherin 7)	2	0.636	inactive
PCDH7 (protocadherin 7)	3	-0.25	inactive
NPC1L1 (NPC1 like intracellular cholesterol transporter 1)	1	1.57	inactive
NPC1L1 (NPC1 like intracellular cholesterol transporter 1)	2	-0.834	inactive
NPC1L1 (NPC1 like intracellular cholesterol transporter 1)	3	-0.257	inactive
GYS1 (glycogen synthase 1)	1	1.5	inactive
GYS1 (glycogen synthase 1)	2	-1.21	inactive
GYS1 (glycogen synthase 1)	3	-1.1	inactive
GNG11 (G protein subunit gamma 11)	1	-1.34	inactive
GNG11 (G protein subunit gamma 11)	2	-0.931	inactive
GNG11 (G protein subunit gamma 11)	3	0.269	inactive
COMMD6 (COMM domain containing 6)	1	1.56	inactive
COMMD6 (COMM domain containing 6)	2	-0.499	inactive
COMMD6 (COMM domain containing 6)	3	1.7	inactive
PRMT3 (protein arginine methyltransferase 3)	1	0.215	inactive
PRMT3 (protein arginine methyltransferase 3)	2	-0.886	inactive
PRMT3 (protein arginine methyltransferase 3)	3	-0.939	inactive

A portion of the results above, for reference:
target	reagent no.	G2 robust z-score	activity call
NPC1L1 (NPC1 like intracellular cholesterol transporter 1)	1	1.57	inactive
NPC1L1 (NPC1 like intracellular cholesterol transporter 1)	2	-0.834	inactive
NPC1L1 (NPC1 like intracellular cholesterol transporter 1)	3	-0.257	inactive
GYS1 (glycogen synthase 1)	1	1.5	inactive
GYS1 (glycogen synthase 1)	2	-1.21	inactive
GYS1 (glycogen synthase 1)	3	-1.1	inactive

The listing continues:
target	reagent no.	G2 robust z-score	activity call
SOHLH2	1	0.764	inactive
SOHLH2	2	0.467	inactive
SOHLH2	3	0.694	inactive
OR4C46 (olfactory receptor family 4 subfamily C member 46)	1	-0.37	inactive
OR4C46 (olfactory receptor family 4 subfamily C member 46)	2	1.34	inactive
OR4C46 (olfactory receptor family 4 subfamily C member 46)	3	-0.733	inactive
RPSAP19 (ribosomal protein SA pseudogene 19)	1	0.523	inactive
RPSAP19 (ribosomal protein SA pseudogene 19)	2	4.54	inactive
RPSAP19 (ribosomal protein SA pseudogene 19)	3	3.09	inactive
CDC20 (cell division cycle 20)	1	-0.724	inactive
CDC20 (cell division cycle 20)	2	9.03	active
CDC20 (cell division cycle 20)	3	3.56	inactive
DPY19L2P2 (DPY19L2 pseudogene 2)	1	-0.0443	inactive
DPY19L2P2 (DPY19L2 pseudogene 2)	2	0.553	inactive
DPY19L2P2 (DPY19L2 pseudogene 2)	3	-0.449	inactive
SZT2 (SZT2 subunit of KICSTOR complex)	1	-0.191	inactive
SZT2 (SZT2 subunit of KICSTOR complex)	2	-0.691	inactive
SZT2 (SZT2 subunit of KICSTOR complex)	3	-0.929	inactive
SZT2 (SZT2 subunit of KICSTOR complex)	4	4.08	inactive
SZT2 (SZT2 subunit of KICSTOR complex)	5	0.117	inactive
SZT2 (SZT2 subunit of KICSTOR complex)	6	0.984	inactive
SLC66A3	1	-0.72	inactive
SLC66A3	2	1.4	inactive
SLC66A3	3	-0.421	inactive
